Results as given in the supplement of paper PMC6821926, “Diaminoquinazoline MMV675968 from Pathogen Box inhibits Acinetobacter baumannii growth through targeting of dihydrofolate reductase” (Scientific Reports, 2019).
± gives the uncertainty stated by the source. This is one part of the list.

What was measured:
[1] = test system: Acinetobacter baumannii Mahidol; assay: percent growth relative to DMSO-treated control; higher = less growth inhibition; details: 10 µM; 18 h
[2] = test system: Acinetobacter baumannii Naval-81; assay: as above; details: 10 µM; 18 h

SMILES	percent growth [1]	percent growth [2]
CC1COC2(CCN(c3nc(=O)c4cc(C(F)(F)F)cc([N+](=O)[O-])c4s3)CC2)O1 (stereo not drawn)	88.3 ± 43%	86 ± 24%
O=C(NCc1cc(Cl)cc(Cl)c1)c1c(C(F)(F)F)nc2ccccn12	88.5 ± 11%	102 ± 8.3%
NCCC(O)C(=O)N[C@@H]1C[C@H](N)[C@@H](OC2O[C@H](CN)[C@@H](O)[C@H](O)[C@H]2O)[C@H](O)C1OC1O[C@H](CO)[C@@H](O)[C@H](N)[C@H]1O (stereo partly drawn)	84.7 ± 9.8%	94.1 ± 21%
CC(=O)NC[C@@H]1CN(c2ccc(N3CCOCC3)c(F)c2)C(=O)O1	106 ± 27%	86.1 ± 4.8%
CCNC(=O)C(C)Nc1nc(-c2cccnc2)nc2sc(C)c(C)c12 (stereo not drawn)	101 ± 16%	107 ± 23%
CC(C)N=c1cc2n(-c3ccc(Cl)cc3)c3ccccc3nc-2cc1Nc1ccc(Cl)cc1	40.5 ± 34%	118 ± 45%
Cc1cc(NCCc2ccccc2)nc(NC(=N)Nc2ccc(Cl)cc2)n1	86.9 ± 12%	87.5 ± 18%
Cc1ccc(-c2nc(CN(Cc3ccccn3)C(C)C)cs2)o1	105 ± 13%	100 ± 24%
COc1ccc(-c2nn(C(C)C)c3ncnc(N)c23)cc1OC	91 ± 9.2%	100 ± 15%
CCCS(=O)(=O)N1CCC(CO)(Cc2ccccc2C(F)(F)F)CC1	93.2 ± 4.4%	88.8 ± 8.9%
CC(C)(C)c1ccc(N[C@@H]2CCCC[C@H]2NC(=O)c2ccco2)cc1	89.3 ± 8.8%	81.5 ± 13%
NC(=O)c1cc(-c2ccsc2)ccc1OCCOc1ccccc1	93.6 ± 13%	96 ± 4.9%
CCC(NC(=O)c1ccccc1NC(=O)c1ccc(C)cc1)C(=O)OC (stereo not drawn)	96.4 ± 6.4%	83.6 ± 5.7%
FC(F)(F)c1ccc(N(c2cccnc2)C2CCN(c3ccc(C(F)(F)F)cn3)CC2)cc1	96.5 ± 4%	93.4 ± 13%
N#Cc1ccc(-c2ccc(OCC(N)=O)cc2)cc1	95.1 ± 6.9%	90.3 ± 16%
CS(=O)(=O)N1CCC(CCn2nc(Cc3cccc4ccccc34)c3c(N)ncnc32)CC1	73.9 ± 34%	80.3 ± 13%
COc1cccc(-c2cc3c(Nc4cccnc4)nccc3[nH]2)c1	101 ± 8.9%	79.5 ± 44%
CC(=O)N1CCc2cc3nc(C)cc(C)c3cc21	56.3 ± 50%	98 ± 10%
CS(=O)(=O)c1cccc(-c2cnc3[nH]cc(-c4ccc(CCC(=O)O)cc4)c3c2)c1	85.9 ± 12%	85.9 ± 4.8%
COc1cc(NC(C)CCCN)c2ncccc2c1 (stereo not drawn)	120 ± 22%	74.7 ± 18%
Cc1nn2c(=O)c3c([nH]c2c1-c1ccc(Cl)cc1)CCCC3	101 ± 12%	75.8 ± 26%
CCS(=O)(=O)N(Cc1ccco1)Cc1cc2ccc(C)cc2nc1O	91.1 ± 9.2%	82.6 ± 14%

One compound at a time, as listed above. Order of values: percent growth [1] | percent growth [2]
CS(=O)(=O)N1CCC(CCn2nc(Cc3cccc4ccccc34)c3c(N)ncnc32)CC1 is entered as 73.9 ± 34% | 80.3 ± 13%
FC(F)(F)c1ccc(N(c2cccnc2)C2CCN(c3ccc(C(F)(F)F)cn3)CC2)cc1 is entered as 96.5 ± 4% | 93.4 ± 13%
CC(=O)NC[C@@H]1CN(c2ccc(N3CCOCC3)c(F)c2)C(=O)O1 is entered as 106 ± 27% | 86.1 ± 4.8%

More structures.

SMILES	percent growth [1]	percent growth [2]
O=C(C1CCN(c2nnc(-n3cccc3)s2)CC1)N1CCC(Cc2ccccc2)CC1	88.7 ± 6%	92.2 ± 11%
CCc1ccccc1-n1c(C)cn2c3c(=O)n(C(C(=O)OC)C(C)C)c(=O)n(C)c3nc12 (stereo not drawn)	103 ± 4.2%	93.6 ± 7.2%
O=C(NCCc1ccccc1)c1cc(-c2cccnc2)cnc1NCC1CC1	90.9 ± 6.2%	105 ± 26%
CCc1ccc(S(=O)(=O)Nc2cc(CN3CCN(CCC(C)C)CC3)ccc2C)cc1	94.2 ± 8%	94.6 ± 1.4%
COc1cc(C2=NCCN2)ccc1-n1cc(-c2cccc(C3=NCCN3)c2)nn1	95.4 ± 9.3%	95.6 ± 23%
CCOC(=O)c1noc(N)c1-c1ccccc1	100 ± 3%	87.5 ± 24%
CCc1nc2ccc(C(=O)NCc3ccc4c(c3)OCO4)cn2c1N(C)Cc1cccs1	85.1 ± 3.5%	102 ± 13%
CC[P](CC)(CC)=[Au][S][C@H]1O[C@@H](COC(C)=O)[C@H](OC(C)=O)[C@@H](OC(C)=O)[C@@H]1OC(C)=O	32.6 ± 30%	28.2 ± 26%
Oc1c(I)cc(I)c2cccnc12	5.11 ± 7.7%	82 ± 12%
Cc1ccc(S(=O)(=O)N2CCN(C(=O)c3cc(-c4ccccc4)[nH]n3)CC2)cc1	124 ± 38%	81.8 ± 24%
Cc1nc(-c2ccccn2)nc(N(C)CCc2ccccc2)c1Cl	100 ± 8.2%	73.5 ± 17%
C[C@@H]1[C@H](O)[C@@H](C)/C=C/C=C/C=C/C=C/C=C/C=C/C=C/[C@H](O[C@@H]2O[C@H](C)[C@@H](O)[C@H](N)[C@@H]2O)C[C@@H]2O[C@](O)(C[C@@H](O)C[C@@H](O)[C@H](O)CC[C@@H](O)C[C@@H](O)CC(=O)O[C@H]1C)C[C@H](O)[C@H]2C(=O)O	85.7 ± 18%	56.3 ± 41%
CCOc1ccc(-c2nc(CNCCc3ccc(F)cc3)cs2)cc1	93.2 ± 13%	75.3 ± 10%
CC(C)C(Oc1cccc2ccccc12)C(=O)O (stereo not drawn)	91 ± 8.1%	95.1 ± 8.3%
O=[N+]([O-])c1cn2c(n1)OC[C@@H](OCc1ccc(OC(F)(F)F)cc1)C2	97.5 ± 3.5%	91.3 ± 18%
CN1CCN(S(=O)(=O)c2ccc(-c3ccc4c(Nc5ncc(Cl)cn5)ccnc4c3)cc2)CC1	80.1 ± 19%	96.1 ± 9.1%
CC(C)C(NC(=O)Cc1cccc2ccccc12)C(=O)Nc1cccc(C#N)c1 (stereo not drawn)	118 ± 26%	89.5 ± 11%
Nc1ncc(-c2ccc(C(F)(F)F)nc2)cc1-c1ccc(C(F)(F)F)nc1	110 ± 17%	82.5 ± 2.9%
N=C(N)Nc1ccc(-c2ccc(-c3ccc(N=C(N)N)c(Cl)c3)o2)cc1Cl	23.4 ± 44%	80.3 ± 11%
CCC(C)NC(=O)c1ccc(NC(=O)C2(c3ccccc3)CCCC2)cc1 (stereo not drawn)	96.4 ± 6.5%	88 ± 14%
CCCCCCCCCCCCCCCCOP(=O)([O-])OCC[N+](C)(C)C	88.1 ± 5.7%	91.5 ± 8.7%
O=C(Nc1cccc(-c2ccc(NCCCN3CCCC3)nc2)c1)c1ccccc1	72.5 ± 48%	75.2 ± 16%
